# Experimental data taken from PubChem BioAssay AID493014 (National Center for Advancing Translational Sciences (NCATS), 2011).
# The list shows a part of the results. Further columns of the screen follow, without active or inactive calls. Most of these compounds were active or inconclusive in the main read-out, so they are no random draw. Potencies come from curve fits of mixed quality, noted in brackets.
# Experiment: qHTS Assay to Find Inhibitors of Chronic Active B-Cell Receptor Signaling
# Details: ABC-DLBCL IkBa-CBG/CBR reporter, luminescence ratio (green luciferase fused to IkBa over red control in TMD8 lymphoma cells), 4 h
# In short: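 Concentration-response series (up to 46 uM) were applied to TMD8 dual-reporter cells for 4 h at 37C with doxycycline. Green/red ratio, after filter-overlap correction, defined %Activity; red signal alone was normalised to basal cells and zero luminescence.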
# [1] = measured here: CBR red luminescence, cell number
# [2] = measured here: IkBa-CBG green luminescence
Structure (SMILES),AC50 [1],AC50 [2]
Cc1cc(S(=O)(=O)Nc2ccccc2C(=O)O)ccc1Cl,"14.1 µM [rising, partial curve, poor fit]",
O=C(CN1CCN(Cc2ccc3c(c2)OCO3)CC1)c1c[nH]c2ccccc12,"22.4 µM [falling, single point]",
CCOC(=O)c1sc2nc3c(cc2c1N)COC(C)(CC)C3 (configuration not stated),"1.26 µM [falling, full curve, poor fit]",
O=C(C1CCCCC1)N1CCN=C1SCc1cccc([N+](=O)[O-])c1,"3.55 µM [falling, partial curve, poor fit]",
Cc1ccc(Cn2c(-c3nonc3N)nc3ccccc32)cc1,"12.6 µM [falling, partial curve]",
COc1cccc(-c2nc(-c3ccccn3)no2)c1OC,"0.366 µM [rising, full curve, poor fit]",
Cc1csc2c(N3CCN(C(=O)Nc4ccc(Cl)c(Cl)c4)CC3)ncnc12,"8.91 µM [rising, partial curve, poor fit]",
Brc1ccc(C2=Nn3c(nnc3-c3n[nH]c4c3CCC4)SC2)cc1,"5.8 µM [falling, full curve]","4.11 µM [falling, partial curve, poor fit]"
Cc1ccc(C(CC(=O)N2CCCC2)c2ccccc2)c(O)c1C (configuration not stated),"29.1 µM [falling, single point]",
Cc1ccc(N(CC(O)Cn2c3ccccc3c3ccccc32)S(C)(=O)=O)cc1 (configuration not stated),"29.1 µM [falling, single point]",
CCOc1ccc(S(=O)(=O)NCCCl)cc1,"12.6 µM [rising, single point]",
COc1ccc(NC(C)=O)cc1NS(=O)(=O)c1cn(C)c(=O)n(C)c1=O,"11.2 µM [rising, single point]",
N#C/C(=N\Nc1cccc(Cl)c1)C(=O)c1ccccc1,"12.6 µM [falling, partial curve]",
O=C(Nc1cc(Br)ccc1O)c1cc(-c2ccc3c(c2)OCO3)on1,"4.47 µM [falling, partial curve, poor fit]",
COc1ccccc1-c1nc(C#N)c(N2CCc3ccccc3C2)o1,"1.84 µM [rising, partial curve, poor fit]",
Oc1ccc(-c2n[nH]c(C(F)(F)F)c2-c2ccccc2)c(O)c1,"17.8 µM [falling, single point]",
CCOc1ncccc1C(=O)Nc1nnc(C2CC2)s1,"11.2 µM [falling, partial curve]",
C[C@]12CCC(=O)C=C1[C@H](O)C[C@@H]1[C@@H]2[C@@H](O)C[C@@]2(C)[C@H]1CC[C@]2(O)C(=O)CO,"20.6 µM [rising, partial curve, poor fit]",
COc1ccc(NC(=O)Cn2nnc(C(=O)NCc3ccco3)c2N)cc1,"31.6 µM [rising, single point]",
O=C(Nc1cccc(S(=O)(=O)C(F)F)c1)c1ccc(S(=O)(=O)N2CCOCC2)cc1,"11.6 µM [rising, partial curve]",

Structure (SMILES),AC50 [1],AC50 [2]
CCc1cccc(CC)c1NC(=O)CSc1nc2ccc(N3C(=O)C4C5C=CC(C5)C4C3=O)cc2s1 (configuration not stated),"13 µM [rising, partial curve, poor fit]",
COc1ccc2ccc(O)c(CN3CCN(S(=O)(=O)c4cccc(C(F)(F)F)c4)CC3)c2c1,"4.11 µM [falling, full curve, poor fit]",
Cc1cc(C)c(OCC(O)CN2CCN(c3ccccn3)CC2)c(C)c1 (configuration not stated),"35.5 µM [falling, single point]",
CC(/C=C1\SC(=S)N(CCCC(=O)Nc2ccc(C(=O)O)cc2)C1=O)=C\c1ccccc1,"1.16 µM [falling, full curve]",
Fc1ccc(Cn2nnnc2C(c2ccc(Cl)cc2)N2CCSCC2)cc1 (configuration not stated),"29.1 µM [falling, single point]",
Cc1ccnc(NC2c3ccccc3C(=O)N2Cc2ccccc2Cl)c1 (configuration not stated),"13 µM [rising, partial curve, poor fit]",
O=C(CCNc1n[nH]c(=O)[nH]c1=O)N/N=C\c1cccc(OCc2ccccc2)c1,"0.708 µM [rising, full curve]",
CC(=O)Nc1cccc(-c2csc(Nc3ccc(C)cn3)n2)c1,"10.3 µM [falling, partial curve]",
c1ccc(-c2nc(NCc3ccco3)c3oc4ccccc4c3n2)cc1,"11.2 µM [falling, partial curve]",
CCOc1ccccc1N(CC(=O)NC1CCCCC1)C(=O)c1nsc(Cl)c1Cl,"11.2 µM [falling, partial curve]",
Clc1cccc(-c2ccc(-c3nc4ccccn4c3NCc3ccccc3)cc2)c1,"29.1 µM [falling, single point]",
O=C(O)c1cccnc1Nc1cccc(C(F)(F)F)c1,"10 µM [falling, partial curve, poor fit]",
Cn1ncc2c(NNC(=O)c3ccc(Cl)c(Cl)c3)ncnc21,"29.1 µM [falling, single point]",
O=C(Nc1cccc(NC(=O)c2ccco2)c1)c1ccc([N+](=O)[O-])cc1,"4.47 µM [falling, partial curve, poor fit]",
Cc1cc(C)n2nc(SCc3cccc(F)c3)nc2n1,"0.0891 µM [rising, full curve, poor fit]",
O=[N+]([O-])c1cccc(/C=N/Nc2ccccn2)c1,"2.82 µM [rising, full curve, poor fit]",
c1ccc(N2CCN(c3nc4cc5c(cc4s3)OCO5)CC2)cc1,"0.00411 µM [rising, full curve, poor fit]",
C/C(=N/Nc1nc(C)c(C)s1)c1cccc([N+](=O)[O-])c1,"4.47 µM [rising, full curve]","6.31 µM [falling, partial curve, poor fit]"
COc1nc(-c2ccc(Cl)cc2Cl)nc2ccccc12,"7.94 µM [rising, partial curve]",
Cc1nc2ccccc2c2oc(C(=O)N3CCc4ccccc43)cc12,"3.55 µM [rising, full curve, poor fit]",

# Retrieved one by one from the entries so far:
Structure (SMILES),AC50 [1],AC50 [2]
Cc1ccnc(NC2c3ccccc3C(=O)N2Cc2ccccc2Cl)c1 (configuration not stated),"13 µM [rising, partial curve, poor fit]",
c1ccc(N2CCN(c3nc4cc5c(cc4s3)OCO5)CC2)cc1,"0.00411 µM [rising, full curve, poor fit]",
